The campaign covered roughly 59,000 compounds. About 6,500 (11%) were called active. Inconclusive means that the source gave no clear call. Such entries were picked first, then a sample of the others. Rule as the data show it: active = max dye-equivalent concentration above about 10 nM; inconclusive = mostly about 1.1 nM to 9.6 nM; inactive = weaker than that.
Assay: qHTS Assay for Spectroscopic Profiling in A350 Spectral Region
Conditions: Compound autofluorescence, 340/450 nm, Alexa 350 dye-equivalents; active compounds read high
In the case of C=CCSc1nnc2c(n1)OC=Nc1ccc(Br)cc1-2, the max dye-equivalent concentration is reported as inconclusive: 4.5 nM. In the case of O=C(COc1ccc(S(=O)(=O)N2CCCCC2)cc1)NC1CCCCC1, the max dye-equivalent concentration is reported as inconclusive: 1.3 nM. With COC(=O)Nc1ccc(S(=O)(=O)N2CCCCCC2)cc1 the max dye-equivalent concentration was inconclusive: 3.1 nM. In the case of NC1(C(=O)OCc2ccccc2)CCCC1, the max dye-equivalent concentration is reported as “inactive”. With Oc1ccccc1-c1nnc(-c2ccc(C(F)(F)F)cc2)o1 the max dye-equivalent concentration was “inactive”. For COc1ccc(C2CC(O)(C(C)(C)O)NO2)cc1 (configuration not stated), the max dye-equivalent concentration was inconclusive: 2.2 nM. For O=C(NCCN1CCNCC1)c1ccccn1, the max dye-equivalent concentration was inconclusive: 4.4 nM. For Cc1nc(C)c(C(=O)C2=C(O)C(=O)N(CCN(C)C)C2c2ccccc2)s1 (configuration not stated), the max dye-equivalent concentration was inconclusive: 4.7 nM. For Fc1ccc(C(c2nnnn2C2CCCC2)N2CCN(Cc3ccncc3)CC2)cc1 (configuration not stated), the max dye-equivalent concentration was inconclusive: 4.5 nM. For O=C(NC1CCCC1)c1ccc2nc(-c3ccco3)c(-c3ccco3)nc2c1, the max dye-equivalent concentration was active: 10 nM. For Cc1ccc(Cn2c(NC(=O)c3ccco3)nc3ccccc32)cc1, the max dye-equivalent concentration was inconclusive: 7.3 nM. For CNc1nc(Oc2ccccc2C(=O)OC)nc(SC)n1, the max dye-equivalent concentration was inconclusive: 1.5 nM. In the case of O=C(NCCNC(=O)C(c1ccccc1)c1ccccc1)c1ccco1, the max dye-equivalent concentration is reported as “inactive”. In the case of O=C(Cn1nnc(-c2ccccc2Cl)n1)N1CCN(S(=O)(=O)c2ccc(Cl)cc2)CC1, the max dye-equivalent concentration is reported as “inactive”. With COc1ccc(CC(NC(C)=O)C(=O)NC2CCN(c3nc(C)cc(C)c3C#N)CC2)c(OC)c1 (configuration not stated) the max dye-equivalent concentration was active: 48 nM. In the case of CN(C)c1ccc(/C=c2\sc3nc(-c4ccccc4)nn3c2=O)cc1, the max dye-equivalent concentration is reported as “inactive”. For CCOn1c(=O)c(-c2cc3ccccc3o2)[n+]([O-])c2ccccc21, the max dye-equivalent concentration was active: 19 nM. For COc1ccc(-n2c(=O)c(-c3cccc(C#N)c3)nc3cnc(N4CCNCC4)nc32)cc1, the max dye-equivalent concentration was inconclusive: 2.5 nM. With CCS(=O)(=O)N1CCN(C2CCC(C)CC2)CC1 (configuration not stated) the max dye-equivalent concentration was inconclusive: 1.1 nM. For CC(=O)NCCc1cc2cc(C)c(C)cc2[nH]c1=O, the max dye-equivalent concentration was inconclusive: 2.2 nM. For CCOC(=O)c1c(C)[nH]c(C(=O)COc2ccc3c(c2)OCO3)c1C, the max dye-equivalent concentration was “inactive”. For CC(=O)Oc1ccc(/C=C\C(=O)C[C@@H]2O[C@@H](Oc3cc(OC(C)=O)c4c(c3)O[C@@H](c3ccc(OC(C)=O)cc3)CC4=O)[C@H](OC(C)=O)[C@H](OC(C)=O)[C@@H]2OC(C)=O)cc1, the max dye-equivalent concentration was “inactive”. With COCCn1c(=O)c(-c2ccccc2)nc2cnc(N3CCOCC3)nc21 the max dye-equivalent concentration was inconclusive: 7.1 nM. For O=C(Nc1ccc2c(c1)OCCO2)C1CCCN(c2ncccn2)C1 (configuration not stated), the max dye-equivalent concentration was inconclusive: 1.6 nM. With CCc1n[nH]c2c1/C(=N\O)CC(c1ccccc1)C2 (configuration not stated) the max dye-equivalent concentration was inconclusive: 2.6 nM. For O=C(CSc1ccccc1)Nc1ccc(S(=O)(=O)NCC2CCCO2)cc1 (configuration not stated), the max dye-equivalent concentration was “inactive”. For Cc1csc(NC(=O)CCC(=O)N(CC(=O)NC2CCCC2)Cc2ccco2)n1, the max dye-equivalent concentration was “inactive”. For CCOc1ccccc1N1CCN(CC(O)COc2ccc3c(C)cc(=O)oc3c2)CC1 (configuration not stated), the max dye-equivalent concentration was inconclusive: 4.2 nM. With C=CCOC(=O)C1=C(C)Nc2ncnn2C1c1cc(Br)ccc1F (configuration not stated) the max dye-equivalent concentration was inconclusive: 1.9 nM. With COC(=O)Nc1c(-c2ccccc2)nc2ccc(C)cn12 the max dye-equivalent concentration was inconclusive: 5.2 nM. In the case of C=CCNc1ncnc2c1[nH]c1ccccc12, the max dye-equivalent concentration is reported as active: 29 nM. In the case of CCC(=O)N(Cc1cc2cc(OC)ccc2[nH]c1=O)c1cc(C)ccc1C, the max dye-equivalent concentration is reported as active: 150 nM. With COc1ccc(N/C(=N\c2nc(C)cc(C)n2)NC(C)=O)cc1OC the max dye-equivalent concentration was inconclusive: 1.3 nM. In the case of O=C(c1cccc(F)c1)N1CCC[C@@]2(CCN(Cc3nccs3)C2)C1, the max dye-equivalent concentration is reported as “inactive”. In the case of Cc1cccc(-n2ncc3c(N4CCc5ccccc54)ncnc32)c1, the max dye-equivalent concentration is reported as active: 15 nM. With CCC(=O)NCCNC(=O)c1c(SC)nsc1SC the max dye-equivalent concentration was inconclusive: 1.9 nM. For O=C(Nc1nnc(-c2ccccc2)o1)NC1CCCCC1, the max dye-equivalent concentration was inconclusive: 1.8 nM. In the case of NS(=O)(=O)c1cc(Cl)c(Cl)c(S(N)(=O)=O)c1, the max dye-equivalent concentration is reported as inconclusive: 6.4 nM. With O=C(c1ccco1)N1CCC[C@@]2(CCN(Cc3ccccc3)C2)C1 the max dye-equivalent concentration was “inactive”. With COCCn1c(=O)[nH]c2cc(C(=O)NCCN3CCN(c4ccc(OC)cc4)CC3)ccc2c1=O the max dye-equivalent concentration was active: 16 nM. In the case of Nc1c(C(=O)NCc2ccco2)sc2nc(N3CCOCC3)c3c(c12)CCCC3, the max dye-equivalent concentration is reported as active: 27 nM. With Cc1nc(N2CCN(C(=O)c3ccco3)CC2)c2c3c(sc2n1)CCC3 the max dye-equivalent concentration was inconclusive: 1.3 nM. With c1ccc2c(c1)[nH]c1c(N3CCCC3)ncnc12 the max dye-equivalent concentration was inconclusive: 3.8 nM. For CC(C)c1ccc(S(=O)(=O)N2CCN(CC(=O)Nc3ccc4c(c3)OCO4)CC2)cc1, the max dye-equivalent concentration was “inactive”. In the case of NC(=O)C1CC(O)CN1c1nc(CN2CCOCC2)nc2scc(-c3ccccc3)c12 (configuration not stated), the max dye-equivalent concentration is reported as inconclusive: 2.2 nM. With COc1ccc(C(=O)COC(=O)CN2C(=O)NC(C)(C)C2=O)cc1OC the max dye-equivalent concentration was inconclusive: 2.1 nM. With O=S(=O)(c1ccc2ccccc2c1)n1cnc2ccccc21 the max dye-equivalent concentration was inconclusive: 4.1 nM. In the case of COc1ccc(OCCNC(=O)c2ccccc2OCC(=O)N2CCCCC2)cc1, the max dye-equivalent concentration is reported as “inactive”. For CC1CC1C(=O)OCC(=O)NCc1ccccc1Cl (configuration not stated), the max dye-equivalent concentration was inconclusive: 1.5 nM. In the case of O=C1c2ccccc2C(=O)N1c1nc(-c2cccs2)cs1, the max dye-equivalent concentration is reported as “inactive”. For Cc1ccnc(NC(=O)CCC(=O)N(CC(=O)NC2CCCCC2)Cc2ccc3c(c2)OCO3)c1, the max dye-equivalent concentration was inconclusive: 1.1 nM. In the case of CC(NC(=O)COC(=O)CCNC(=O)c1ccco1)C12CC3CC(CC(C3)C1)C2 (configuration not stated), the max dye-equivalent concentration is reported as inconclusive: 1.7 nM. For COc1nc(-c2ccc(Cl)cc2)ccc1-c1noc(-c2ccco2)n1, the max dye-equivalent concentration was inconclusive: 8 nM. For CCc1[nH]c(=O)c(C#N)c2c1CCCC2, the max dye-equivalent concentration was inconclusive: 2.6 nM. In the case of COC(=O)CN1C(=O)C2(OCCCO2)c2ccccc21, the max dye-equivalent concentration is reported as inconclusive: 2.6 nM. For CCCc1cc(=O)oc2cc(OCC(=O)Nc3cc(C)on3)ccc12, the max dye-equivalent concentration was active: 500 nM. With COc1ccccc1OCC(O)Cn1c(=N)n(Cc2ccccc2)c2ccccc21 (configuration not stated) the max dye-equivalent concentration was inconclusive: 3.7 nM. In the case of COc1ccc(-c2cc(C(=O)N3CC4(C)CC3CC(C)(C)C4)no2)cc1 (configuration not stated), the max dye-equivalent concentration is reported as inconclusive: 5.5 nM. In the case of NC(=O)COc1ccc(C2c3c(oc4ccccc4c3=O)C(=O)N2CC2CCCO2)cc1 (configuration not stated), the max dye-equivalent concentration is reported as inconclusive: 1.2 nM. In the case of O=C(CSc1nnnn1-c1ccc2c(c1)OCO2)NCc1cccs1, the max dye-equivalent concentration is reported as inconclusive: 3.4 nM. In the case of O=S1(=O)N[C@H]2CC[C@@H]3NS(=O)(=O)N[C@H]4CC[C@H](N1)N4S(=O)(=O)N23, the max dye-equivalent concentration is reported as “inactive”. For COc1ccc(-n2c(=S)[nH]c3cc(C(=O)NCc4ccco4)ccc3c2=O)cc1OC, the max dye-equivalent concentration was inconclusive: 1.8 nM. For O=C(O)c1ccccc1C(=O)c1cccs1, the max dye-equivalent concentration was inconclusive: 1.5 nM. For COCCn1c(=O)c(C)nc2cnc(N3CCOCC3)nc21, the max dye-equivalent concentration was inconclusive: 6.1 nM. With Cc1cc(OC(=O)CNC(=O)OC(C)(C)C)c2c(C)cc(=O)oc2c1 the max dye-equivalent concentration was inconclusive: 1.1 nM. In the case of CC(C)CNS(=O)(=O)c1ccc(CCC(=O)NCC2CCCO2)cc1 (configuration not stated), the max dye-equivalent concentration is reported as inconclusive: 1.4 nM. In the case of CCOc1ccccc1Nc1ccc(N)cc1S(=O)(=O)O, the max dye-equivalent concentration is reported as inconclusive: 1.3 nM. For Cc1cn(CC[C@H](N)C(=O)O)c(=O)[nH]c1=O, the max dye-equivalent concentration was “inactive”. In the case of NS(=O)(=O)c1ccc(-n2nncc2C23CC4CC(CC(C4)C2)C3)cc1, the max dye-equivalent concentration is reported as inconclusive: 1.7 nM. For CN1CCN(c2ncc3nc(-c4cc(F)cc(F)c4)c(=O)n(-c4ccccc4)c3n2)CC1, the max dye-equivalent concentration was active: 100 nM. For Cn1c(C(=O)O)c(CC(=O)NCc2cccnc2)c2ccccc21, the max dye-equivalent concentration was inconclusive: 1.9 nM. For CC(C)Cn1nc(NS(=O)(=O)c2ccccc2)c2cc3ccccc3nc21, the max dye-equivalent concentration was “inactive”. In the case of Cc1ccccc1-n1nc(C)c2cc(C(=O)N3CCN(S(=O)(=O)c4ccc(F)cc4)CC3)sc21, the max dye-equivalent concentration is reported as inconclusive: 1.5 nM. With Oc1cc2c(cc1O)CN(C(=S)NCCc1ccc(Cl)cc1)CCC2 the max dye-equivalent concentration was “inactive”. In the case of Cc1ccc(Cn2nc(C)c(NC(=O)c3cc(-c4ccc5c(c4)OCO5)on3)c2C)cc1, the max dye-equivalent concentration is reported as inconclusive: 8 nM. For CCCc1cc(N2CCN(c3ccccn3)CC2)n2nc(C)c(-c3ccccc3)c2n1, the max dye-equivalent concentration was active: 330 nM. In the case of c1cncc(-c2nc(N3CCNCC3)c3ccccc3n2)c1, the max dye-equivalent concentration is reported as inconclusive: 1.2 nM. With CCN1CCN(Cc2cc(=O)oc3cc4c(cc23)CCC4)CC1 the max dye-equivalent concentration was inconclusive: 8.8 nM. In the case of CS(=O)(=O)Nc1ccc(C(=O)Nc2ccccc2C(=O)N2CCCC2)cc1, the max dye-equivalent concentration is reported as inconclusive: 1.4 nM. For CC[C@H]1CN(C)[C@H]2Cc3c([nH]c4ccccc34)C(=O)C[C@H]1[C@H]2C(=O)OC, the max dye-equivalent concentration was inconclusive: 4.1 nM. With Nc1ncnc2nc(-c3ccc(C[P+](c4ccccc4)(c4ccccc4)c4ccccc4)cc3)[nH]c12 the max dye-equivalent concentration was “inactive”. For CC12CCC(C(=O)N3CCN(c4ccccc4)CC3)(CC1=O)C2(C)C (configuration not stated), the max dye-equivalent concentration was inconclusive: 1.1 nM. In the case of Cc1ccc2oc(-c3ccco3)nc2c1, the max dye-equivalent concentration is reported as “inactive”. With Cc1ccc(C(=O)CSC2=C(C#N)C(c3ccco3)C3=C(CC(C)(C)CC3=O)N2)cc1 (configuration not stated) the max dye-equivalent concentration was inconclusive: 2.5 nM. For O=C1CCC(=O)N1CN(C(=O)c1ccco1)c1ccccc1, the max dye-equivalent concentration was inconclusive: 1.7 nM. With CCOc1ccccc1NC(=O)Cc1ccccc1OC the max dye-equivalent concentration was inconclusive: 1.6 nM. In the case of N#CC1=C(N)N(c2ccccc2)C(c2ccco2)C1(C#N)C#N (configuration not stated), the max dye-equivalent concentration is reported as inconclusive: 6.9 nM.

Source: PubChem BioAssay AID590 (National Center for Advancing Translational Sciences (NCATS), 2007)
